Source: US20060257938A1, “Method of screening for drugs that block ligand binding to a lipid binding protein” (priority 2005, published 2006)
Changes are numbered by the printed parent chain.

B1: 62N, 72A (protein, listed as Rattus norvegicus)
chain: AFDGTWKVDRNENYEKFMEKMGINVVKRKLGAHDNLKLTITQEGNKFTVKESSNFRNIDVVNELGVDFAYSAADGTELTGTWTMEGNKLVGKFKRVDNGKELIAVREISGNELIQTYTYEGVEAKRIFKKE
modifications: PEPTIDE (1)...(131) wild-type rat intestinal fatty acid binding protein
B2: 68D, 72A (protein, listed as Rattus norvegicus)
chain: B1 chain with N62F, F68D
modifications: PEPTIDE (1)...(131) wild-type rat intestinal fatty acid binding protein
B3: 72E (protein, listed as Rattus norvegicus)
chain: B1 chain with N62F, A72E
modifications: PEPTIDE (1)...(131) wild-type rat intestinal fatty acid binding protein
B4: 68L, 72A (protein, listed as Rattus norvegicus)
chain: B1 chain with N62F, F68L
modifications: PEPTIDE (1)...(131) wild-type rat intestinal fatty acid binding protein
B5: 68V, 72A (protein, listed as Rattus norvegicus)
chain: B1 chain with N62F, F68V
modifications: PEPTIDE (1)...(131) wild-type rat intestinal fatty acid binding protein
B6: 72S (protein, listed as Rattus norvegicus)
chain: B1 chain with N62F, A72S
modifications: PEPTIDE (1)...(131) wild-type rat intestinal fatty acid binding protein
B7: 68E, 72A (protein, listed as Rattus norvegicus)
chain: B1 chain with N62F, F68E
modifications: PEPTIDE (1)...(131) wild-type rat intestinal fatty acid binding protein
B8: 62T, 72A (protein, listed as Rattus norvegicus)
chain: B1 chain with N62T
modifications: PEPTIDE (1)...(131) wild-type rat intestinal fatty acid binding protein
B9: 72Q (protein, listed as Rattus norvegicus)
chain: B1 chain with N62F, A72Q
modifications: PEPTIDE (1)...(131) wild-type rat intestinal fatty acid binding protein
B10: 68C, 72A (protein, listed as Rattus norvegicus)
chain: B1 chain with N62F, F68C
modifications: PEPTIDE (1)...(131) wild-type rat intestinal fatty acid binding protein
B11: 68N, 72A (protein, listed as Rattus norvegicus)
chain: B1 chain with N62F, F68N
modifications: PEPTIDE (1)...(131) wild-type rat intestinal fatty acid binding protein
B12: 72V (protein, listed as Rattus norvegicus)
chain: B1 chain with N62F, A72V
modifications: PEPTIDE (1)...(131) wild-type rat intestinal fatty acid binding protein
B13: 68A, 72A (protein, listed as Rattus norvegicus)
chain: B1 chain with N62F, F68A
modifications: PEPTIDE (1)...(131) wild-type rat intestinal fatty acid binding protein
B14: 68S, 72A (protein, listed as Rattus norvegicus)
chain: B1 chain with N62F, F68S
modifications: PEPTIDE (1)...(131) wild-type rat intestinal fatty acid binding protein
B15: 68I, 72A (protein, listed as Rattus norvegicus)
chain: B1 chain with N62F, F68I
modifications: PEPTIDE (1)...(131) wild-type rat intestinal fatty acid binding protein
B16: 70C, 72A (protein, listed as Rattus norvegicus)
chain: B1 chain with N62F, Y70C
modifications: PEPTIDE (1)...(131) wild-type rat intestinal fatty acid binding protein
B17: 68Y, 72A (protein, listed as Rattus norvegicus)
chain: B1 chain with N62F, F68Y
modifications: PEPTIDE (1)...(131) wild-type rat intestinal fatty acid binding protein
B18: 68T, 72A (protein, listed as Rattus norvegicus)
chain: B1 chain with N62F, F68T
modifications: PEPTIDE (1)...(131) wild-type rat intestinal fatty acid binding protein
B19: 72D (protein, listed as Rattus norvegicus)
chain: B1 chain with N62F, A72D
modifications: PEPTIDE (1)...(131) wild-type rat intestinal fatty acid binding protein
B20: 68M, 72A (protein, listed as Rattus norvegicus)
chain: B1 chain with N62F, F68M
modifications: PEPTIDE (1)...(131) wild-type rat intestinal fatty acid binding protein
B21: 68G, 72A (protein, listed as Rattus norvegicus)
chain: B1 chain with N62F, F68G
modifications: PEPTIDE (1)...(131) wild-type rat intestinal fatty acid binding protein
B22: 72N (protein, listed as Rattus norvegicus)
chain: B1 chain with N62F, A72N
modifications: PEPTIDE (1)...(131) wild-type rat intestinal fatty acid binding protein
B23: 72Y (protein, listed as Rattus norvegicus)
chain: B1 chain with N62F, A72Y
modifications: PEPTIDE (1)...(131) wild-type rat intestinal fatty acid binding protein
B24: 72M (protein, listed as Rattus norvegicus)
chain: B1 chain with N62F, A72M
modifications: PEPTIDE (1)...(131) wild-type rat intestinal fatty acid binding protein
B25: 70M, 72A (protein, listed as Rattus norvegicus)
chain: B1 chain with N62F, Y70M
modifications: PEPTIDE (1)...(131) wild-type rat intestinal fatty acid binding protein
B26: 72R (protein, listed as Rattus norvegicus)
chain: B1 chain with N62F, A72R
modifications: PEPTIDE (1)...(131) wild-type rat intestinal fatty acid binding protein
B27: 72F (protein, listed as Rattus norvegicus)
chain: B1 chain with N62F, A72F
modifications: PEPTIDE (1)...(131) wild-type rat intestinal fatty acid binding protein
B28: 68Q, 72A (protein, listed as Rattus norvegicus)
chain: B1 chain with N62F, F68Q
modifications: PEPTIDE (1)...(131) wild-type rat intestinal fatty acid binding protein
B29: 72C (protein, listed as Rattus norvegicus)
chain: B1 chain with N62F, A72C
modifications: PEPTIDE (1)...(131) wild-type rat intestinal fatty acid binding protein
B30: 72K (protein, listed as Rattus norvegicus)
chain: B1 chain with N62F, A72K
modifications: PEPTIDE (1)...(131) wild-type rat intestinal fatty acid binding protein
B31: 72G (protein, listed as Rattus norvegicus)
chain: B1 chain with N62F, A72G
modifications: PEPTIDE (1)...(131) wild-type rat intestinal fatty acid binding protein
B32: 73E, 72A (protein, listed as Rattus norvegicus)
chain: B1 chain with N62F, A73E
modifications: PEPTIDE (1)...(131) wild-type rat intestinal fatty acid binding protein
B33: 104F1, 72A (protein, listed as Rattus norvegicus)
chain: B1 chain with N62F, A104F
modifications: PEPTIDE (1)...(131) wild-type rat intestinal fatty acid binding protein
B34: 104D1, 72A (protein, listed as Rattus norvegicus)
chain: B1 chain with N62F, A104D
modifications: PEPTIDE (1)...(131) wild-type rat intestinal fatty acid binding protein
B35: 102Y, 72A (protein, listed as Rattus norvegicus)
chain: B1 chain with N62F, L102Y
modifications: PEPTIDE (1)...(131) wild-type rat intestinal fatty acid binding protein

Assay: Baseline fluorescence ratio Ro of probe in absence of analyte
Conditions: average baseline fluorescence ratio Ro of the clone probe; substitutions with respect to SEQ ID NO: 2

Row | Molecule | AvgOfRo
1 | B1 | 0.20
2 | B2 | 0.38
3 | B3 | 0.57
4 | B4 | 0.21
5 | B5 | 0.20
6 | B6 | 0.21
7 | B7 | 0.36
8 | B8 | 0.24
9 | B9 | 0.66
10 | B10 | 0.58
11 | B11 | 0.33
12 | B12 | 0.09
13 | B13 | 0.23
14 | B14 | 0.21
15 | B15 | 0.22
16 | B16 | 0.43

Row | Molecule | AvgOfRo
17 | B17 | 0.17
18 | B18 | 0.18
19 | B19 | 0.47
20 | B20 | 0.19
21 | B21 | 0.23
22 | B22 | 0.31
23 | B23 | 0.39
24 | B24 | 0.38
25 | B25 | 0.27
26 | B26 | 0.69
27 | B27 | 0.52
28 | B28 | 0.30
29 | B29 | 0.30
30 | B30 | 0.40
31 | B31 | 0.28
32 | B32 | 0.23

Same assay, conditions: baseline fluorescence ratio of probe

Row | Molecule | Ro
33 | B4 | 0.207
34 | B23 | 0.386
35 | B27 | 0.520
36 | B31 | 0.307

Same assay, conditions: baseline fluorescence ratio of probe, no fatty acid

Row | Molecule | Ro | AvgOfRo
37 | B9 | 0.665 | –
38 | B22 | 0.310 | –
39 | B33 | – | 0.35
40 | B34 | – | 0.65
41 | B35 | 0.719 | 0.72
